Experimental data taken from PMC8510167.
For at least one entry, the source does not settle the construct or the ends of the probe.

Tested on: SigH-His (sigma-H) (Bacillus thuringiensis HD73)
Test: EMSA
Details: complete shift at 180 ng/ul SigH-His, reversed by 150x unlabeled specific competitor, no core RNA polymerase mentioned; EMSA: 10 mM Tris-HCl pH 7.5, 0.5 mM DTT, 50 mM NaCl, 500 ng poly(dI:dC), 4% glycerol, 20 ul, 0.02 or 0.015 ug FAM-DNA, 25 C, 20 min; 5% native PAGE in 0.5x TBE; recombinant protein; label: FAM; probe letters rebuilt from the primers and the genome

Sequence: TTCCATTCCGCGTTTCCTCCTCGTTTCTTTAAAAAGTATTAGCAATTATTTCACTTTAACTTATATTCACGAGGAATGGCGCGTATTCCTGCTAAATTTTCGTAATTTTTCTAAAAAATTAAAATATAATAACTTATCTAAAATTTGACGGAAATTTACTCAAAAAATGGTTGATCGTCATTAATTAAAATACGTTCAATTCTCTTTGCTTTTCCTGTATTTGGATCCACATCAATTAACACTGCACT (double strand) [FAM-PspoVS1 (256 bp)]
- binding result: binds
